At least one structure is not confirmed: it was looked up by name or label, or the drawing left a doubt.
Tested on: JAK1/JAK2
Assay type: cell-based, human

## N#CC[C@H](C1CCCC1)n1cc(-c2ncnc3[nH]ccc23)cn1 [Ruxolitinib]
  reversal of IFN-induced anti-viral state: effectively and completely reverses the induction of the anti-viral state

Source: patent US11505782B2 (priority 2018, dated 2022)
